Assay results: paper PMC13485621
These are yes or no findings as the source states them, for the method shown. Some binding calls cover weakened binding; strength is not graded here. Sequences can lack the tags named with a protein.

Target: T1, mCitrine-tagged GIPR C-tail, wild type (human) (UniProt P48546)
T1 sequence: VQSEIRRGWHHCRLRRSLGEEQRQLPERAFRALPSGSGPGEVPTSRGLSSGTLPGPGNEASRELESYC
Assay: FRET or BRET; bimolecular FRET in solution; GIPC-mCer 30 nM (donor), mCit-GIPR C-tail 300 nM (WT, pm or pd), with or without β-arr2 300 nM; 20 mM HEPES pH 7.4, 25 mM KCl, 5 mM MgCl2; FRET ratio 525 nm/475 nm; both purified

binding: binds
B1: mCerulean-tagged GIPC (protein, UniProt O14908 1-333)
chain: MPLGLGRRKKAPPLVENEEAEPGRGGLGVGEPGPLGGGGSGGPQMGLPPPPPALRPRLVFHTQLAHGSPTGRIEGFTNVKELYGKIAEAFRLPTAEVMFCTLNTHKVDMDKLLGGQIGLEDFIFAHVKGQRKEVEVFKSEDALGLTITDNGAGYAFIKRIKEGSVIDHIHLISVGDMIEAINGQSLLGCRHYEVARLLKELPRGRTFTLKLTEPRKAFDMISQRSAGGRPGSGPQLGTGRGTLRLRSRGPATVEDLPSAFEEKAIEKVDDLLESYMGIRDTELAATMVELGKDKRNPDELAEALDERLGDFAFPDEFVFDVWGAIGDAKVGRY
